Out of some 300,000 compounds screened, about 5,400 (1.8%) were called active. Inconclusive means that the source gave no clear call. Such entries were picked first, then a sample of the others. Calls follow the shape of the full dose curve; tested in HEK293 cells. Potencies beside an inconclusive call are fits to weak or partial responses and may not hold up.
assay: qHTS for inhibitors of binding or entry into cells for Marburg Virus; details: Marburg virus pseudotyped entry inhibition, cell reporter; activity change, negative = inhibition: at 37.8 µM (top of the series) unless noted
% is scaled to controls: 0 for no effect and ±100 for the full control effect; potency is read from the fitted curve at half-maximal effect.

Compound | Potency | activity change, negative = inhibition
O=C(Nc1ccccc1Cl)N1CCC2(CC1)Oc1ccccc1C(=O)N2Cc1ccc(F)cc1 | inactive | 
COC(=O)c1cc(=O)c2c([N+](=O)[O-])ccc(OC)c2o1 | inactive | 
CC(C)(C)c1nc(SCC(=O)Nc2ccc(N3CCOCC3)cc2)c2ccccc2n1 | inconclusive: 29.1 µM [inhibitor, single point] | 
COc1cc(NC(=O)c2ccco2)c(OC)cc1NC(=O)Nc1cccc(Cl)c1 | inactive | 
CCOC(=O)c1[nH]c(C)c(C(=O)N2CCN(c3ccccc3)CC2)c1C | inactive | 
CCCCN(CC)C(=O)Cc1cn(C)c2ccccc12 | inconclusive: 5.8 µM [inhibitor, full curve, poor fit] | 
C=CCC(C(=O)OC)(C(=O)OC)c1ccc([N+](=O)[O-])cn1 | inconclusive: 0.112 µM [inhibitor, full curve, poor fit] | 
Cc1cccc(Oc2cc([N+](=O)[O-])cc3c2C(=O)Nc2ccccc2O3)c1 | inconclusive: 35.5 µM [inhibitor, single point] | 
CCOc1ccc(CN2CCCN(C)CC2)cc1 | inactive | 
OCCN1CCN(CC(O)COCCOc2ccc(Br)cc2)CC1 (configuration not stated) | inconclusive: 6.31 µM [inhibitor, single point] | 
CSc1cccc(NC(=S)N(CCN(C)C)C(C)c2ccccn2)c1 (configuration not stated) | active: 10 µM | 
O=C(Cn1cnc(Cl)c1Cl)c1ccc(F)cc1 | inconclusive: 2.51 µM [inhibitor, full curve, poor fit] | 
CC(C)C(=O)Nc1nnc(-c2ccco2)s1 | inactive | 
COc1ccc(CN2CCC(Cc3ccccc3)CC2)c(C)c1C | inconclusive: 10 µM [inhibitor, partial curve, poor fit] | 
O=C(NN1CCN(Cc2ccccc2Cl)CC1)c1ccc(Cl)cc1 | inactive | 
COc1ccc(C2CC(=O)c3cc(-c4nc(-c5cccc([N+](=O)[O-])c5)cs4)c(=O)n(-c4cccc(C)c4)c3C2)cc1 (configuration not stated) | inactive | 
CCCn1c(SCC(=O)N2c3ccccc3Sc3ccccc32)nc2ccccc21 | inconclusive: 17.8 µM [inhibitor, partial curve, poor fit] | 
Cc1cccc(-c2nc(NCCCN(C)C)c3ccccc3n2)c1 | inconclusive: 6.31 µM [inhibitor, full curve, poor fit] | 
O=C(CN1C(=O)c2ccccc2C1=O)Nc1ccc(Cl)cn1 | inconclusive: 12.6 µM [inhibitor, single point] | 
CCOC(=O)n1c(=O)oc2ccc(Cl)cc21 | inconclusive: 10.3 µM [inhibitor, partial curve, poor fit] | 
O=C(COc1ccccc1Br)N1CCN(c2ccccc2)CC1 | inactive | 
Nc1ccc(-c2nc3ccc([N+](=O)[O-])cc3[nH]2)cc1 | inconclusive: 7.08 µM [inhibitor, partial curve] | 
O=C(OCCNC(=O)c1ccc2ccccc2n1)c1ccc(F)cc1 | inconclusive: 1.3 µM [inhibitor, single point] | 
N=c1n(Cc2ccccc2)c2ccccc2n1CC(O)COc1ccccc1 (configuration not stated) | active: 3.66 µM | 

Compound | Potency | activity change, negative = inhibition
Cn1ccnc1C(=O)c1ccc(N)cc1 | inactive | 
O=C(NC(=S)Nc1ccccc1C(=O)O)c1ccc2ccccc2c1 | inconclusive: 11.2 µM [activator, partial curve, poor fit] | 
O=C(Nc1cccc(Cl)c1)N(Cc1nc2ccccc2c(=O)[nH]1)Cc1cccs1 | inactive | 
c1ccc(CNc2ncnc3ccccc23)cc1 | inconclusive: 1.3 µM [inhibitor, full curve, poor fit] | 
COc1ccc(/C=C2\S/C(=N/S(=O)(=O)c3cccs3)NC2=O)cc1 | inconclusive: 6.31 µM [inhibitor, single point] | 
CC(C)c1csc(CN2CCC(CCC(=O)NCC3CCCO3)CC2)n1 (configuration not stated) | inconclusive: 0.562 µM [activator, full curve] | 
NC(=O)C1CN(C(=O)c2nn(Cc3ccccc3)c(=O)c3ccccc23)c2ccccc2O1 (configuration not stated) |  | inconclusive: 34.5% [activator]
c1ccc2nc3c(ccc4ccccc43)cc2c1 | inconclusive: 0.316 µM [activator, full curve, poor fit] | 
Cc1ccc2cc3cc(C(=O)NCCC(C)C)oc3nc2c1 | inactive | 
O=c1cc(COc2ccccc2Cl)nc2scc(-c3ccccc3)n12 | inconclusive: 6.31 µM [inhibitor, single point] | 
O=C(Nc1ccc(N2CCOCC2)nc1)c1ccc(Cl)cc1 | inactive | 
CCN(CC)CCn1c(=N)n(CC(O)COc2cccc(C)c2)c2ccccc21 (configuration not stated) | inconclusive: 5.62 µM [inhibitor, partial curve, poor fit] | 
C/C=C/c1ccc(OCC(=O)OCc2csc(Nc3ccc(C)cc3)n2)c(OC)c1 | inconclusive: 28.2 µM [activator, partial curve, poor fit] | 
COc1cc(/C=N/Nc2ccc(F)cc2F)cc(OC)c1OC | inactive | 
CC(=O)N1c2ccc(S(=O)(=O)N3CCC(C(=O)N4CCCC(C)C4)CC3)cc2CC1C (configuration not stated) | inconclusive: 20 µM [inhibitor, single point] | 
CCOC(=O)c1ccc(N2C(=O)c3[nH]nc(-c4ccc(OC)cc4)c3C2c2cccc(O)c2)cc1 (configuration not stated) | inconclusive: 10 µM [inhibitor, partial curve, poor fit] | 
Cc1ccc(-c2noc(CCCC(=O)NCC3CCCO3)n2)cc1 (configuration not stated) | inconclusive: 35.5 µM [inhibitor, single point] | 
COc1cccc(C(=O)Nc2cccc(C(C)=O)c2)c1 | inconclusive: 17.8 µM [inhibitor, single point] | 
COc1ccccc1CNC(=O)CCn1c(=O)c2ccccc2n(CC(=O)Nc2cc(Cl)ccc2C)c1=O | inconclusive: 3.16 µM [inhibitor, single point] | 
Cc1cc(C)n(-c2nc(NCc3cccnc3)c3c4c(sc3n2)COC(C)(C)C4)n1 | inconclusive: 1.12 µM [inhibitor, partial curve, poor fit] | 
COc1cccc(NC(=O)CCS(=O)(=O)c2cccs2)c1 | inconclusive: 0.224 µM [activator, full curve, poor fit] | 
CCc1nn(CC(=O)NCc2ccccc2)c(=O)c2cccn12 | inconclusive: 22.4 µM [inhibitor, single point] | 
COc1ccc(NC(=S)NCCCN2CCCC2=O)c(OC)c1 |  | inconclusive: 2.83% [activator] [at 46.1 µM]
Cn1c(Cc2ccccc2)nnc1SCC(=O)Nc1ccccc1N1CCOCC1 | inactive | 

Compound | Potency | activity change, negative = inhibition
CCC(=O)N1CCCc2cc(S(=O)(=O)N3CCCc4ccccc43)ccc21 | inactive | 
Cc1ccc(-c2nc3cccc(C)n3c2Nc2ccc3c(c2)OCCO3)cc1 | inconclusive: 7.94 µM [activator, partial curve, poor fit] | 
O=C(C[n+]1cccc2ccccc21)c1ccccc1 | inconclusive: 5.62 µM [activator, single point] | 
CCOC(=O)c1cnc2c(OC)cccc2c1N1CCN(c2ccccn2)CC1 | active: 11.2 µM | 
NCCNc1ccc(C(=O)N2c3ccccc3Sc3ccccc32)cc1[N+](=O)[O-] | inconclusive: 15.8 µM [inhibitor, single point] | 
CC1CCN(CCCCOc2ccccc2-c2ccccc2)CC1 | active: 2.31 µM | 
C/C(=N/OCO/N=C(\C)c1ccccc1)c1ccccc1 | active: 3.55 µM | 
O=c1c2ccccc2nc(SCc2ccccc2)n1Cc1ccco1 | inactive | 
Cc1[nH]c2ccccc2c1C(=O)C(=O)N1CC2CC(C1)c1cccc(=O)n1C2 (configuration not stated) | inconclusive: 35.5 µM [activator, single point] | 
Cc1cc(C)c2c(n1)nn1c(C)c(CCC(=O)Nc3cccc(C)c3C)c(C)nc21 | inactive | 
COc1ccc(COC(=O)c2ccc(Cl)c(S(=O)(=O)N3CCOCC3)c2)cc1F | inactive | 
COc1ccc(C(=O)/C=C/Nc2ccc(S(=O)(=O)Nc3nc(C)cc(C)n3)cc2)cc1OC | inactive | 
CC(=O)c1ccc(C(=O)N2CCC(CO)(Cc3cccc(C(F)(F)F)c3)CC2)cc1 | inconclusive: 7.94 µM [inhibitor, partial curve, poor fit] | 
COc1ccc(/C=C/C(=O)C23CC4CC(CC(C4)C2)C3)cc1CN1CCOCC1 | inconclusive: 35.5 µM [inhibitor, single point] | 
Cc1ccccc1C(=O)Oc1cccc2c(O)cccc12 | inconclusive: 22.4 µM [inhibitor, single point] | 
Cc1c(-c2ccco2)[n+](=O)c2c(n1[O-])CCCCC2 | inactive | 
O=C(O)c1ccccc1NN=Cc1ccccc1 | inconclusive: 14.1 µM [inhibitor, single point] | 
CCOc1ccccc1C(=O)Nc1nccs1 | inconclusive: 11.2 µM [activator, single point] | 
CNc1ncnc(Sc2ccc(Cl)cc2)c1[N+](=O)[O-] | inactive | 
CC(=O)N1CCC(N(CCN2CCOCC2)C(=S)Nc2cc(C)ccc2C)CC1 | inconclusive: 3.16 µM [inhibitor, single point] | 
COc1cc(OC)c(OC)cc1/C=C1\Oc2cc(OS(C)(=O)=O)ccc2C1=O | inconclusive: 6.31 µM [activator, single point] | 
N#Cc1ccc(COn2nnc3ccccc32)cc1 | inactive | 
COc1cc(C)nc(N(C)C(C)=O)n1 | inconclusive: 2.51 µM [inhibitor, partial curve, poor fit] | 
COc1ccccc1-n1c(-c2ccccc2)c[n+]2c1CCc1ccccc1-2 | inconclusive: 1.12 µM [inhibitor, partial curve, poor fit] | 

— PubChem BioAssay AID540276 (National Center for Advancing Translational Sciences (NCATS), 2011)
